Some entries share one result that the patent states for a list of compounds.
Test system: choroid neovascularization lesions
Assay: Laser-induced choroid neovascularization model in rats
Type: in vivo, Brown Norway rats
Conditions: single intravitreal injection or three times daily ocular instillation
Experimental: The tolerability, efficacy, and ocular distribution were evaluated in a laser-induced choroid neovascularization model in rats. […] In this 22-day study, effects of local administration of the multi-target (i.e., multi-target kinase) inhibitors nintedanib and lenvatinib were examined on the development of new vessels. Vehicle and positive control groups were included in the study. Female Brown Norway rats were divided into 7 separate treatment groups. On Day 1, laser treatments were performed on all animals using a 520 nm thermal laser to generate a total of three lesions per eye. […] On Day 3, bilateral intravitreal injections of vehicle, 5 μg/eye of rat anti-VEGF antibody, 50 μg/eye of nintedanib, or 50 μg/eye of lenvatinib were performed. On Day 22, fluorescein angiography was performed on all animals, and the lesion sizes/areas were determined using image analysis software (Image J). […] Concentrations of test compounds in ocular tissues and plasma were measured by LCMS-MS after intravitreal or eyedrop administration in rats. […] The eyedrop administration produced higher drug concentrations in the ocular surface, such as conjunctiva, than the intravitreal injection. Three times daily eyedrop administration maintained higher concentrations in plasma than a single intravitreal injection.

Structure (SMILES)	duration of inhibition of choroid neovascularization
COC(=O)c1ccc2c(c1)NC(=O)/C2=C(\Nc1ccc(N(C)C(=O)CN2CCN(C)CC2)cc1)c1ccccc1 [Nintedanib]	over 20 days
COc1cc2nccc(Oc3ccc(NC(=O)NC4CC4)c(Cl)c3)c2cc1C(N)=O [Lenvatinib]	over 20 days

— US20200345637A1, “SUSPENSION COMPOSITIONS OF MULTI-TARGET INHIBITORS” (AIVIVA BIOPHARMA, INC., priority 2018, published 2020)
